From PubChem BioAssay AID2685 (National Center for Advancing Translational Sciences (NCATS), 2010)
Some of the results follow. These are further read-outs of the screen, such as a control signal, another cell line or another target. No call is given for them. Compounds called inactive in the main read-out are mostly missing here. Potencies come from curve fits of mixed quality, noted in brackets.

Experiment: qHTS Assay for Lipid Storage Modulators in Drosophila S3 Cells;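 on cell number change: cells counted by Cell Tracker Red CMTPX staining in the red channel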
Details: BODIPY lipid droplet fluorescence, 18-24 h; for cell number change: measured here: cell count max response, cells fed with added oleic acid
Summary of the method: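 Laser-scanning cytometry quantifies lipid droplet accumulation (500–530 nm total intensity; droplet/cell object ratio) in oleic acid-fed (400 uM added) Drosophila S3 cells treated with a concentration series. 20 uM Triacsin C defined 100% inhibition.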

[1] = measured here: cell number channel AC50, cells fed with added oleic acid
[2] = measured here: lipid fluorescence (Fed channel) AC50, cells fed with added oleic acid

In the case of `COC(=O)c1ccc(C(=O)NC2CCCc3c2cnn3-c2ccc(C)c(C)c2)cc1` (stereo not given), the cell number change is reported as -18.3% and the AC50 [1] is reported as 1.3 µM [falling, partial curve].
With `CC(=O)OCC(=O)[C@H]1CC[C@H]2[C@@H]3CCC4=CC(=O)CC[C@]4(C)[C@H]3CC[C@]12C` the cell number change was 36.7%, the AC50 [1] was 0.651 µM [rising, full curve, poor fit] and the AC50 [2] was 0.411 µM [rising, full curve, poor fit].
In the case of `COc1ccccc1C(=O)Nc1nnc(-c2ccco2)s1`, the AC50 [2] is reported as 6.51 µM [rising, partial curve, poor fit].
With `COc1ccc(NC(=O)c2oc3ccccc3c2NC(=O)C2CCCO2)cc1OC` (stereo not given) the cell number change was 23.3%, the AC50 [1] was 2.06 µM [rising, partial curve] and the AC50 [2] was 2.31 µM [rising, full curve, poor fit].
With `O=C(Cc1ccccc1)NCC1CCCO1` (stereo not given) the cell number change was 27.3% and the AC50 [2] was 0.184 µM [falling, full curve].
In the case of `O=c1oc2c(O)cccc2cc1-c1nc2ccccc2[nH]1`, the cell number change is reported as -19.2% and the AC50 [2] is reported as 4.61 µM [falling, full curve].
With `CCC1(CC)NC(=O)N(CC(=O)Nc2ccc(S(=O)(=O)N3CCOCC3)cc2)C1=O` the cell number change was 14.4% and the AC50 [2] was 16.4 µM [rising, single point].
`COC(=O)N/N=C(\C)c1ccc(Br)cc1` gave a cell number change of 26.5%.
For `CN(Cc1ccccc1F)C(=O)CCNC(=O)c1ccc(C(C)(C)C)cc1`, the cell number change was -59.2%, the AC50 [1] was 9.2 µM [falling, partial curve] and the AC50 [2] was 23.1 µM [falling, partial curve, poor fit].
`Cc1csc2nc(SCC(=O)Nc3ccccc3F)[nH]c(=O)c12` showed a cell number change of 14.1%.
In the case of `COc1ccc(/C=C(/NC(=O)c2ccccc2)c2nc3ccccc3[nH]2)cc1OC`, the AC50 [2] is reported as 29.1 µM [rising, partial curve, poor fit].
For `Cc1ccc2nc3c(cc2c1)c(NC(=O)C1CCCO1)nn3CC(C)C` (stereo not given), the AC50 [2] was 1.46 µM [rising, full curve].
In the case of `CC(C)=CC(=O)Nc1ccc2c(c1)OCO2`, the cell number change is reported as 37.6%, the AC50 [1] is reported as 0.092 µM [rising, full curve, poor fit] and the AC50 [2] is reported as 0.116 µM [rising, full curve, poor fit].
In the case of `Cc1cc(C)c(C)c(S(=O)(=O)N2CCN(c3ccccn3)CC2)c1C`, the cell number change is reported as 18.8% and the AC50 [2] is reported as 29.1 µM [rising, single point].
With `O=C(/C=C/c1cccs1)N1CCN(c2ccccc2)CC1` the cell number change was 9.55% and the AC50 [2] was 0.411 µM [falling, single point].
For `COc1ccc(CCNC(=S)NCc2ccc(Cl)c(Cl)c2)cc1OC`, the cell number change was 4.31%.
For `O=C(O)CSCC(=O)c1ccccc1`, the cell number change was 2.04% and the AC50 [2] was 5.17 µM [rising, partial curve].
For `CCN1C(=O)/C(=C/C=C2/SCCN2C)SC1=S`, the AC50 [2] was 6.51 µM [rising, single point].
In the case of `CN(C)Cc1c(O)ccc2c(-c3ccccc3)cc(=O)oc12`, the cell number change is reported as 2.11% and the AC50 [2] is reported as 1.84 µM [rising, partial curve].
For `CCOC(=O)C1CCCN(c2c(NCCCN(CC)c3cccc(C)c3)c(=O)c2=O)C1` (stereo not given), the cell number change was -1.65% and the AC50 [2] was 0.146 µM [falling, full curve, poor fit].
With `Nc1ccc(C(=O)OCC(=O)N2CCN(C(=O)c3ccco3)CC2)cc1[N+](=O)[O-]` the cell number change was -13.6% and the AC50 [2] was 0.184 µM [falling, partial curve, poor fit].
Compound `COCCOC(=O)c1c(NC(=O)CNCc2ccco2)sc(C(N)=O)c1C` has a cell number change of 17.1%.
For `O=c1[nH]c(C2CCN(S(=O)(=O)c3ccc(C(F)(F)F)cc3)CC2)nc2c1nnn2Cc1ccccc1`, the AC50 [2] was 25.9 µM [falling, single point].
With `CC1CC(C)CN(C(=O)CSc2ncnc3sccc23)C1` (stereo not given) the cell number change was 6.51%, the AC50 [1] was 0.082 µM [falling, full curve, poor fit] and the AC50 [2] was 7.31 µM [falling, partial curve, poor fit].
In the case of `CCOc1ccc(C(CC(=O)O)NC(=O)c2ccco2)cc1OC` (stereo not given), the cell number change is reported as -18.5% and the AC50 [2] is reported as 32.6 µM [falling, partial curve].
With `N#CCCN(C(=O)COC(=O)c1cccc(S(=O)(=O)N2CCCC2)c1)c1ccc(F)cc1` the cell number change was -6.35% and the AC50 [2] was 0.58 µM [rising, single point].
Compound `CCCCS(=O)(=O)c1sc2nc(C)cc(C)c2c1N` has a cell number change of -10.5%.
Compound `O=C(Cc1ccccc1)NCCCc1ccccc1` has a cell number change of -4.82%.
For `Cc1cc(N2CCN(c3nc4ccccc4s3)CC2)n2ncnc2n1`, the cell number change was 23.3%.
`C=CCOc1ccc(C2/C(=C(\O)c3ccc(F)cc3)C(=O)C(=O)N2CCCN(C)C)cc1` (stereo not given) showed a cell number change of 3.16%.
In the case of `O=C(Nc1ccccc1)C(=O)Nc1ccc2c(c1)N(C(=O)C1CC1)CCC2`, the cell number change is reported as 10.4% and the AC50 [2] is reported as 18.4 µM [rising, single point].
`COc1ccccc1N1CCN(CC(O)COc2ccc(S(=O)(=O)N3CCOCC3)cc2)CC1` (stereo not given) showed a cell number change of 2.06%.
For `COCCCN1C(=O)C(O)=C(C(=O)c2ccco2)C1c1cccc(Br)c1` (stereo not given), the cell number change was 14.5% and the AC50 [2] was 29.1 µM [rising, single point].
In the case of `CCCn1c(=N)n(CC(=O)c2cccs2)c2ccccc21`, the cell number change is reported as 16.8% and the AC50 [2] is reported as 29.1 µM [rising, single point].
For `O=C(c1ccc(S(=O)(=O)N2CCCCC2)cc1)N1CCN=C1SCc1cccnc1`, the AC50 [2] was 0.92 µM [rising, full curve, poor fit].
In the case of `Cc1cccc(CC(=O)NCC2CCCCC2)c1`, the cell number change is reported as -11.6% and the AC50 [2] is reported as 2.31 µM [rising, partial curve].
In the case of `Cc1cc(C(=O)N/N=C/c2c(C)[nH]c3ccccc23)n[nH]1`, the cell number change is reported as 5.98% and the AC50 [1] is reported as 0.116 µM [falling, full curve, poor fit].
For `CCOc1ccc(NC(=O)CS(=O)CC(=O)NC2CCCc3ccccc32)cc1` (stereo not given), the cell number change was -20.4%.
Work on `Cc1ccc(C(=O)NCC(=O)OCC(=O)N(CC(C)C)c2c(N)n(Cc3ccccc3)c(=O)[nH]c2=O)cc1C` yielded a cell number change of 9%.
For `O=C(c1cnn(-c2cccc(F)c2)c1)c1ccccc1O`, the cell number change was 19.1% and the AC50 [2] was 14.6 µM [rising, partial curve, poor fit].
With `S=c1nc(C2CCCCC2)[nH][nH]1` the cell number change was -61.3% and the AC50 [1] was 16.4 µM [falling, partial curve, poor fit].
With `CN(C)S(=O)(=O)c1ccc(-c2csnn2)s1` the cell number change was 44.5% and the AC50 [1] was 14.6 µM [rising, partial curve, poor fit].
In the case of `Cc1c(C(=O)C(=O)NCCC2=CCCCC2)c2ccccc2n1C`, the cell number change is reported as 10.6%.
In the case of `Cc1ccc(S(=O)(=O)c2nc(S(=O)(=O)c3ccc(C)cc3)c(N3CCN(CCO)CC3)s2)cc1`, the cell number change is reported as -45%, the AC50 [1] is reported as 0.0517 µM [falling, full curve, poor fit] and the AC50 [2] is reported as 29.1 µM [falling, partial curve, poor fit].
For `COc1ccc(CNC(=O)CCCN2C(=O)NC3(CCCC3)C2=O)cc1`, the cell number change was -30.4%, the AC50 [1] was 6.51 µM [falling, partial curve, poor fit] and the AC50 [2] was 6.51 µM [falling, partial curve, poor fit].
For `C=CCN1C(=O)C(O)(CC(=O)c2ccc(OC)cc2OC)c2cc(Br)ccc21` (stereo not given), the cell number change was 3.9% and the AC50 [1] was 6.51 µM [rising, single point].
In the case of `CCOc1ccccc1NC=C1C(=O)OC(C)(C)OC1=O`, the cell number change is reported as -17.9% and the AC50 [2] is reported as 29.1 µM [falling, partial curve, poor fit].
With `COc1ccc(NC(=O)c2cccc(-n3c(C)ccc3C)c2)c(OC)c1` the AC50 [1] was 0.116 µM [falling, full curve, poor fit] and the AC50 [2] was 0.103 µM [rising, full curve, poor fit].
For `COc1ccc(-c2nsc(SCC(=O)NCc3ccc4c(c3)OCO4)n2)cc1`, the cell number change was -0.453% and the AC50 [2] was 4.11 µM [rising, full curve, poor fit].
In the case of `NS(=O)(=O)c1ccc(CCNC(=O)COC(=O)Cc2c(F)cccc2Cl)cc1`, the cell number change is reported as 0.156% and the AC50 [2] is reported as 16.4 µM [falling, single point].
In the case of `O=C1CC(C(=O)Nc2ccccc2)C2(CCCC2)O1` (stereo not given), the cell number change is reported as -74.2% and the AC50 [1] is reported as 29.1 µM [falling, single point].
For `COc1ccc(S(=O)(=O)Nc2ccc(Cc3ccncc3)cc2)cc1C`, the cell number change was -36.1% and the AC50 [1] was 11.6 µM [falling, partial curve, poor fit].
With `NS(=O)(=O)c1ccc(NC(=O)c2ccc3c(c2)CCCC3)cc1` the cell number change was 43.2% and the AC50 [1] was 18.4 µM [rising, partial curve].
Work on `COc1cccc(CNC(=O)c2ccccc2SCC(=O)N2CCCC2)c1` yielded a cell number change of 5.07%.
For `Cc1ccc(NC(=O)NCCCN2CCCC2=O)cc1`, the AC50 [2] was 0.517 µM [rising, single point].
In the case of `O=S(=O)(c1ccc2ccccc2c1)N1CCCOC1`, the cell number change is reported as 1.95% and the AC50 [2] is reported as 0.411 µM [falling, full curve, poor fit].
With `Cc1cc(Cl)ccc1OCC(=O)OCC(=O)NC1CCS(=O)(=O)C1` (stereo not given) the cell number change was 6.14% and the AC50 [2] was 0.00461 µM [rising, full curve, poor fit].
In the case of `O=[N+]([O-])c1ccc2nc(NS(=O)(=O)c3ccccc3[N+](=O)[O-])sc2c1`, the cell number change is reported as 7.62% and the AC50 [1] is reported as 0.00517 µM [rising, full curve, poor fit].
For `COc1cc(SC)ccc1C(=O)N1CCCc2ccccc21`, the cell number change was -19.6% and the AC50 [2] was 23.1 µM [falling, single point].
For `COc1cc(-c2nc3ccc4ccccc4c3c3c2CCC3)ccc1O`, the AC50 [1] was 0.13 µM [rising, full curve, poor fit] and the AC50 [2] was 0.0731 µM [rising, full curve, poor fit].
In the case of `CC1=CC(C)(C)Nc2ccc(Cc3ccc4c(c3)C(C)=CC(C)(C)N4)cc21`, the cell number change is reported as -53.8%, the AC50 [1] is reported as 23.1 µM [falling, single point] and the AC50 [2] is reported as 18.4 µM [falling, partial curve].
